The source of these data is PMC11698047.

Experiment [1] has as its target Drosophila melanogaster Canoe RA1 domain (amino acids 1-137, including the αN helix) (Drosophila melanogaster) (UniProt Q24279). Kind of experiment: SEC-MALS; 100 µl of individual proteins (200 µM) or RA domain-Rap1G12V-GMPPNP complexes (200 µM complex) on Superdex 200, 0.5 ml/min, buffer C (25 mM HEPES-NaOH pH 7.5, 100 mM NaCl, 5 mM MgCl2, 0.1% β-ME) with 0.2 g/l sodium azide; in duplicate; both purified. In general terms: Size exclusion chromatography separates by hydrodynamic size, large species first.

Experiment [2] addresses Drosophila melanogaster Canoe RA2 domain (amino acids 222-350, including the αN helix), with His-tag (Drosophila melanogaster) (UniProt Q24279). The description is as above.

No constants are given. Whether binding was seen depends on the method and setting. For some assays here: Sequences can lack the tags named with a protein.

B1: Drosophila melanogaster Canoe RA1 domain (amino acids 1-137, including the αN helix) (domain or fragment, UniProt Q24279 1-137)
chain: MSHDKKMLDREAVRSVIQQWNANRLDLFALSEPDENLLFHGVMRFYFQDAGQKVATKCIRVASDATVTDVIDTLIEKFRPDMRMLSVPNYALYEVHANGEERRLNADEKPLLVQLNWHIDDREGRFLLKNIDQKTTP
As for B1, the binding entry in experiment [1] is “no binding (tested: 200 µM)”.

B2: Drosophila melanogaster Canoe RA2 domain (amino acids 222-350, including the αN helix), with His-tag (domain or fragment, UniProt Q24279 222-350)
chain: TRSISNPEAVMRRRRQQKLEKKLQQFRSRDGGPDTGGTLKIYGESLCQDVPYKTLLLSIRDCAQAVVREMLTKYGLEKADPLHYCLVQVNSDGTEYILDDDECPLSILMNHPTSRGSIMFHVRRRPADS
B2: the binding entry in experiment [2] was “no binding (tested: 200 µM)”.
